Source: patent US20040157867A1, “Pyrimidine phosphorylase as a target for imaging and therapy” (priority 2004, published 2004)
Some entries share one result that the patent states for a list of compounds. At least one structure is not confirmed: it was looked up by name or label, or the drawing left a doubt.

System: five human tumor cell lines (CEM, MOLT-4, K-562, RAJI, U937)
Experiment: Incorporation of thymine analogs into DNA of five tumor cell lines
Assay type: cell-based
Conditions: 20 μM, 24 hours, five cell lines differing in TPase activity

Compound: O=c1[nH]cc(Br)c(=O)[nH]1 [BrUra, bromouracil]
- variation of incorporation into DNA among the cell lines: more than 10 fold
